Reference: patent US9598448B2, “Osmium (II) arene imino anti-cancer complexes” (University of Warwick, priority 2010, dated 2017)
Some results were stated once for a whole list of compounds, not compound by compound.

Legend:
[1] = tested on: A2780/cis, A549, HCT-116, MCF-7, PC-3 and RT-112 Cell Lines; experiment: MTT growth inhibition assay, cell line panel compared with cisplatin; format: cell-based, human; conditions: all cell lines tested apart from RT-112 for complex 3
A2780 cells = experiment: N-acetyl-L-cysteine (NAC) treatment, cell viability by SRB; format: cell-based, human; conditions: 1.2-1.8× IC50 (2.5× for cisplatin)
Experimental: Then NAC and osmium complexes were removed at the same time and washed with PBS once, the cells were incubate for 72 h for recovery. The cell viability was tested by SRB test same as used for IC50 test.

[(η^6-bip)Os(Azpy-O)I].0.5H2O [3*]
greater potency than cisplatin [1]: at least 10 fold | cell growth restored after NAC pretreatment (A2780 cells; pretreated with 5 mM NAC for 2 h): > 70% | cell growth, % of the control value (A2780 cells; without NAC, 24 h, 72 h recovery): < 30%
